Test results: US20240279220A1, “INDOLE COMPOUNDS AND METHODS OF USE” (Genzyme Corporation, priority 2021, published 2024)
At least one compound was matched to its structure with a doubt left.

Sequences of proteins named here, by UniProt entry; tags and fusion partners are left off. A line that says so, or that is headed by a name, gives the form on record, which may keep a tag or linker.
UniProt P13569, with tags, fused parts or gaps DEL508-508: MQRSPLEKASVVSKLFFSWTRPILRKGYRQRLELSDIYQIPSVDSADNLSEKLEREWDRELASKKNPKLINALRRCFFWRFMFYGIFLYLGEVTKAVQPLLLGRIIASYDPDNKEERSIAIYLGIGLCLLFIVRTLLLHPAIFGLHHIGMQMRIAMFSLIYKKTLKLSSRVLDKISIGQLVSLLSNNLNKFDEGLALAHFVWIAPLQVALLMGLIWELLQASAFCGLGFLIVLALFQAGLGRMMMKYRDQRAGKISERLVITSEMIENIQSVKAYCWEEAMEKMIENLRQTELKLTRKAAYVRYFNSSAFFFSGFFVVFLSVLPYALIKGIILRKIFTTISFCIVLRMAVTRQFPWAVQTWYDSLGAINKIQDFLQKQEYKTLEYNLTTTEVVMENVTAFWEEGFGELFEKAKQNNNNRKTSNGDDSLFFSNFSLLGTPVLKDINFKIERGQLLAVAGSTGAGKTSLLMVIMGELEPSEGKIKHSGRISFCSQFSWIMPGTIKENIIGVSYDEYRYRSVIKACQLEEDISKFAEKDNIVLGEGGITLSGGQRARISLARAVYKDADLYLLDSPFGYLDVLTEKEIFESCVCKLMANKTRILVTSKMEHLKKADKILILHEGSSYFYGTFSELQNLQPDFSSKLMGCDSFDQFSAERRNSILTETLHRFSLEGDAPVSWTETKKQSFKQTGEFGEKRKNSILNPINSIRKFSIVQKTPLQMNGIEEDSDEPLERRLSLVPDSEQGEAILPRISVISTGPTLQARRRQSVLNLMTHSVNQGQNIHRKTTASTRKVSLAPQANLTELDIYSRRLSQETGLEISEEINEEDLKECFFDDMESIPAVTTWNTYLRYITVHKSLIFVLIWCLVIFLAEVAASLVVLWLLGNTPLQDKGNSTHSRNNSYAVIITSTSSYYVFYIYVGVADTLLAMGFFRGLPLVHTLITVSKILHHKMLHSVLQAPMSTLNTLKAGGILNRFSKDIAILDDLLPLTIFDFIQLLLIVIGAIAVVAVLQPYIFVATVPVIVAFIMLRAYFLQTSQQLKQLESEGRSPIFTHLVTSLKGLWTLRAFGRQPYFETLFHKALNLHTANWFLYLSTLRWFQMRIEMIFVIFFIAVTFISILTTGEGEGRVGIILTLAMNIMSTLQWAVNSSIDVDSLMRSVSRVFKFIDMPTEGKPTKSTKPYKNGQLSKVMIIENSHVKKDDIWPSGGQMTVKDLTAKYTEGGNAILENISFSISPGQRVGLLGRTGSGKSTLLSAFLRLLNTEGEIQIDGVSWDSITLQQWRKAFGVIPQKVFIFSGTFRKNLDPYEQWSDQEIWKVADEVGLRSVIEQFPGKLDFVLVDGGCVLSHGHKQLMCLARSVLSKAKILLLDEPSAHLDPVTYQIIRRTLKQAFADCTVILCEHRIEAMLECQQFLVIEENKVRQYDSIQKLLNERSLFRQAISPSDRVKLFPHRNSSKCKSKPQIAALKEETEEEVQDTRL

Columns and labels:
NBD1/3D = experiment: Aggregation analysis using differential static light scattering (DSLS), NBD1 thermal stability; type: binding, Human; conditions: ΔTagg versus DMSO control; compound at 100 μM
Method: Purified recombinant NBD1 was produced using previously described methods (A. Schmidt, J. L. Mendoza, P. J. Thomas (2011) Biochemical and Biophysical Approaches to Probe CFTR Structure (365-376) M. D. Amaral, K. Kunzelmann (eds.), Cystic Fibrosis, Methods in Molecular Biology 741, Springer Science+Business Media). The effect of test compounds on thermal stability of NBD1 was evaluated by differential static light scattering (DSLS) using the Harbinger Stargazer-384 instrument (Epiphyte Three, Toronto, Canada).
Test compounds were dissolved and diluted to desired concentrations in 100% DMSO. The compounds or DMSO controls (100 nL) were stamped into wells of a […] low volume optical plate (Corning Inc., Corning, NY) using the Echo 555 acoustic liquid handler (Labcyte Inc., San Jose, CA).
NBD1 protein was diluted to 0.2 mg/ml in S200 buffer (50 mM Tris-HCl, 150 mM NaCl, 5 mM MgCl2, 2 mM ATP, 2 mM DTT, pH7.6) containing 1% glycerol. […] At the end of the experiment run, instrument software integrated image files and analyzed data automatically. […] A temperature of aggregation (Tagg) was calculated based on the inflection point of the curve. To better compare data across experiments the average Tagg for DMSO control wells was calculated and subtracted from values for wells containing compounds to obtain a “ΔTagg” value. […]

CFTR = molecular target: T1, CFTR (Homo sapiens, UniProt P13569, DEL508-508); experiment: TECC24 recording of CFTR-mediated transepithelial chloride transport in ΔF508 homozygous CF-HBE cells; type: cell-based; conditions: 10 μM test agent, 48 hours incubation, AUC of forskolin-stimulated IEQ divided by vehicle AUC, primary CF-HBE cells
T1 construct: Primary human bronchial epithelial cells from a ΔF508 homozygous CF donor; host or cells: primary human bronchial epithelial cells (CF-HBE), ΔF508 homozygous donor
Method: The effects of a test agent on CFTR-mediated transepithelial chloride transport was measured using TECC24 recording analysis. Test agents were solubilized in DMSO. Solubilized test agents were mixed with incubation medium containing DMEM/F12, Ultroser G (2%; Crescent Chemical, catalog #67042), Hyclone Fetal Clone II (2%; GE Healthcare, catalog #SH30066.02), bovine brain extract (0.25%; Lonza, catalog #CC-4098), insulin (2.5 μg/mL), IL-13 (10 ng/mL), hydrocortisone (20 nM), transferrin (2.5 μg/mL), triiodothyronine (500 nM), ethanolamine (250 nM), epinephrine (1.5 μM), phosphoethanolamine (250 nM), and retinoic acid (10 nM). Primary human bronchial epithelial cells from a ΔF508 homozygous CF donor (CF-HBE cells; from University of North Carolina Cystic Fibrosis Tissue Procurement Center), grown on Transwell HTS 24-well cell culture inserts (Costar, catalog #3378), were exposed to test agents or controls dissolved in incubation medium. […]
Following incubation, the transwell cell culture inserts containing the test agent or control-treated CF-HBE cells were loaded onto a TECC24 apparatus (TECC v7 or MTECC v2; EP Design) to record the transepithelial voltage (VT) and resistance (TEER) using 4 AgCl electrodes per well configured in current-clamp mode. […] Efficacy is expressed as the ratio of the test agent AUC divided by vehicle AUC. […]

CO[C@]1(C)C[C@](c2cc(F)cc(CCC(=O)O)c2)(c2cnc(-c3cc(Oc4c(F)c(F)c5[nH]ccc5c4S(C)(=O)=O)ccc3F)[nH]2)C1 [Example 75, 3-(3-((1s,3s)-1-(2-(5-((6,7-difluoro-4-(methylsulfonyl)-1H-indol-5-yl)oxy)-2-fluorophenyl)-1H-imidazol-5-yl)-3-methoxy-3-methylcyclobutyl)-5-fluorophenyl)propanoic acid]
DSLS NBD1/3D Human Stability delta-T (° C.) @ 100 (μM) (NBD1/3D): A (A: T ≥ 10° C.)
TECC24 @ 10 μM over DMSO (AUC fold over DMSO) (CFTR): A (“A” refers to AUC @10 uM >= 12)
